# Assay results reported in the supplement of paper PMC8728848.
# The list shows a part of the results.
# B1: Actd5 (Actinidia), P84527 (protein)
# chain: ISSCNGPCRDLNDCDGQLICIKGKCNDDPQVGTHICRGTTHSHQPGGCKPSGTLTCRGKSYPTYDCSPPVTSSTPAKLTNNDFSEGGDDGGPSECDESYHNNNERIVALSTGWYNGGSRCGKMIRITASNGKSVSAKVVDECDSRHGCDKEHAGQPPCRNNIVDGSNAVWSALGLDKNVGVVDITWSMA
# How the values were obtained:
# Assay in all cases: glycan array binding signal (z-score within array); higher = stronger binding
# Settings in all cases: glycan notation: IUPAC condensed, linker removed
# [1] = biological target: Gal(a1-6)Glc
# Procedure, shortened: (§1)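 The Consortium for Functional Glycomics database supplied 3228 glycan arrays, of which those lacking an available protein sequence were dropped. The binding signal, a within-array Z-score, was averaged across arrays of the same protein sequence and across linkers. Negative scores can be read as non-binding.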
# [2] = biological target: Gal(b1-2)Gal
# Procedure, shortened: as §1
# [3] = biological target: Gal(b1-3)Gal
# Procedure, shortened: as §1
# [4] = biological target: Gal(b1-3)Gal(b1-4)GlcNAc
# Procedure, shortened: as §1
# [5] = biological target: Gal(b1-3)GalNAc
# Procedure, shortened: as §1
# [6] = biological target: Gal(b1-3)GalNAc(a1-3)[Fuc(a1-2)]Gal(b1-4)Glc
# Procedure, shortened: as §1
# [7] = biological target: Gal(b1-3)GalNAc(a1-3)[Fuc(a1-2)]Gal(b1-4)GlcNAc
# Procedure, shortened: as §1
# [8] = biological target: Gal(b1-3)GalNAc(b1-3)Gal
# Procedure, shortened: as §1
# [9] = biological target: Gal(b1-3)GalNAc(b1-3)Gal(a1-4)Gal(b1-4)Glc
# Procedure, shortened: as §1
# [10] = biological target: Gal(b1-3)GalNAc(b1-4)Gal(b1-4)Glc
# Procedure, shortened: as §1
# [11] = biological target: Gal(b1-3)GalNAc(b1-4)[Neu5Ac(a2-3)]Gal(b1-4)Glc
# Procedure, shortened: as §1
# [12] = biological target: Gal(b1-3)GlcNAc
# Procedure, shortened: as §1
# [13] = biological target: Gal(b1-3)GlcNAc(a1-3)Gal(b1-4)GlcNAc
# Procedure, shortened: as §1
# [14] = biological target: Gal(b1-3)GlcNAc(a1-6)Gal(b1-4)GlcNAc
# Procedure, shortened: as §1
# [15] = biological target: Gal(b1-3)GlcNAc(b1-2)Man
# Procedure, shortened: as §1
# [16] = biological target: Gal(b1-3)GlcNAc(b1-2)Man(a1-3)[Gal(b1-3)GlcNAc(b1-2)Man(a1-6)]Man(b1-4)GlcNAc(b1-4)GlcNAc
# Procedure, shortened: as §1
# [17] = biological target: Gal(b1-3)GlcNAc(b1-2)Man(a1-3)[Gal(b1-3)GlcNAc(b1-2)Man(a1-6)]Man(b1-4)GlcNAc(b1-4)[Fuc(a1-6)]GlcNAc
# Procedure, shortened: as §1
# [18] = biological target: Gal(b1-3)GlcNAc(b1-2)Man(a1-3)[GlcNAc(b1-4)][Gal(b1-3)GlcNAc(b1-2)Man(a1-6)]Man(b1-4)GlcNAc(b1-4)GlcNAc
# Procedure, shortened: as §1
# [19] = biological target: Gal(b1-3)GlcNAc(b1-2)[Gal(b1-3)GlcNAc(b1-6)]Man(a1-6)[Gal(b1-3)GlcNAc(b1-2)Man(a1-3)]Man(b1-4)GlcNAc(b1-4)GlcNAc
# Procedure, shortened: as §1
# [20] = biological target: Gal(b1-3)GlcNAc(b1-3)Gal(b1-3)GlcNAc
# Procedure, shortened: as §1
# [21] = biological target: Gal(b1-3)GlcNAc(b1-3)Gal(b1-4)Glc
# Procedure, shortened: as §1
# [22] = biological target: Gal(b1-3)GlcNAc(b1-3)Gal(b1-4)GlcNAc
# Procedure, shortened: as §1
# [23] = biological target: Gal(b1-3)GlcNAc(b1-3)Gal(b1-4)GlcNAc(b1-2)Man(a1-3)[Gal(b1-3)GlcNAc(b1-3)Gal(b1-4)GlcNAc(b1-2)Man(a1-6)]Man(b1-4)GlcNAc(b1-4)GlcNAc
# Procedure, shortened: as §1
# [24] = biological target: Gal(b1-3)GlcNAc(b1-3)Gal(b1-4)GlcNAc(b1-2)[Gal(b1-3)GlcNAc(b1-3)Gal(b1-4)GlcNAc(b1-6)]Man(a1-6)[Gal(b1-3)GlcNAc(b1-3)Gal(b1-4)GlcNAc(b1-2)Man(a1-3)]Man(b1-4)GlcNAc(b1-4)[Fuc(a1-6)]GlcNAc
# Procedure, shortened: as §1
# [25] = biological target: Gal(b1-3)GlcNAc(b1-3)Gal(b1-4)GlcNAc(b1-3)Gal(b1-4)GlcNAc(b1-2)[Gal(b1-3)GlcNAc(b1-3)Gal(b1-4)GlcNAc(b1-3)Gal(b1-4)GlcNAc(b1-6)]Man(a1-6)[Gal(b1-3)GlcNAc(b1-3)Gal(b1-4)GlcNAc(b1-3)Gal(b1-4)GlcNAc(b1-2)Man(a1-3)]Man(b1-4)GlcNAc(b1-4)[Fuc(a1-6)]GlcNAc
# Procedure, shortened: as §1
# [26] = biological target: Gal(b1-3)GlcNAc(b1-3)Gal(b1-4)GlcNAc(b1-6)[Gal(b1-3)GlcNAc(b1-3)]Gal(b1-4)Glc
# Procedure, shortened: as §1
# [27] = biological target: Gal(b1-3)GlcNAc(b1-3)Gal(b1-4)[Fuc(a1-3)]GlcNAc
# Procedure, shortened: as §1
# [28] = biological target: Gal(b1-3)GlcNAc(b1-3)Gal(b1-4)[Fuc(a1-3)]GlcNAc(b1-6)[Gal(b1-3)GlcNAc(b1-3)]Gal(b1-4)Glc
# Procedure, shortened: as §1
# [29] = biological target: Gal(b1-3)GlcNAc(b1-3)GalNAc
# Procedure, shortened: as §1
# [30] = biological target: Gal(b1-3)GlcNAc(b1-6)Gal(b1-4)GlcNAc
# Procedure, shortened: as §1
# [31] = biological target: Gal(b1-3)GlcNAc(b1-6)GalNAc
# Procedure, shortened: as §1
# [32] = biological target: Gal(b1-3)GlcNAc(b1-6)[Gal(b1-3)]GalNAc
# Procedure, shortened: as §1
# [33] = biological target: Gal(b1-3)GlcNAc6S
# Procedure, shortened: as §1
# [34] = biological target: Gal(b1-3)[Fuc(a1-4)]GlcNAc
# Procedure, shortened: as §1
# [35] = biological target: Gal(b1-3)[Fuc(a1-4)]GlcNAc(b1-2)Man
# Procedure, shortened: as §1
# [36] = biological target: Gal(b1-3)[Fuc(a1-4)]GlcNAc(b1-2)Man(a1-3)[Gal(b1-3)[Fuc(a1-4)]GlcNAc(b1-2)Man(a1-6)]Man(b1-4)GlcNAc(b1-4)[Fuc(a1-6)]GlcNAc
# Procedure, shortened: as §1
# [37] = biological target: Gal(b1-3)[Fuc(a1-4)]GlcNAc(b1-3)Gal(b1-3)[Fuc(a1-4)]GlcNAc
# Procedure, shortened: as §1
# [38] = biological target: Gal(b1-3)[Fuc(a1-4)]GlcNAc(b1-3)Gal(b1-4)[Fuc(a1-3)]GlcNAc
# Procedure, shortened: as §1
# [39] = biological target: Gal(b1-3)[Fuc(a1-4)]GlcNAc(b1-6)GalNAc
# Procedure, shortened: as §1
# [40] = biological target: Gal(b1-3)[GlcNAc(b1-6)]GalNAc
# Procedure, shortened: as §1
# [41] = biological target: Gal(b1-3)[Neu5Ac(a2-6)]GalNAc
# Procedure, shortened: as §1
# [42] = biological target: Gal(b1-3)[Neu5Ac(a2-6)]GlcNAc(b1-4)Gal(b1-4)Glc
# Procedure, shortened: as §1
# [43] = biological target: Gal(b1-3)[Neu5Ac(b2-6)]GalNAc
# Procedure, shortened: as §1
# [44] = biological target: Gal(b1-4)Gal
# Procedure, shortened: as §1
# [45] = biological target: Gal(b1-4)GalNAc(a1-3)[Fuc(a1-2)]Gal(b1-4)GlcNAc
# Procedure, shortened: as §1
binder,measurement,setting,value
B1,glycan array binding signal (z-score),[1],-0.59
same,glycan array binding signal (z-score),[2],-0.531
same,glycan array binding signal (z-score),[3],0.469
same,glycan array binding signal (z-score),[4],0.152
same,glycan array binding signal (z-score),[5],-0.497
same,glycan array binding signal (z-score),[6],-0.318
same,glycan array binding signal (z-score),[7],0.028
same,glycan array binding signal (z-score),[8],-0.105
same,glycan array binding signal (z-score),[9],0.214
same,glycan array binding signal (z-score),[10],-0.526
same,glycan array binding signal (z-score),[11],-0.202
same,glycan array binding signal (z-score),[12],-0.444
same,glycan array binding signal (z-score),[13],0.53
same,glycan array binding signal (z-score),[14],0.179
same,glycan array binding signal (z-score),[15],0.719
same,glycan array binding signal (z-score),[16],0.859
same,glycan array binding signal (z-score),[17],-0.457
same,glycan array binding signal (z-score),[18],-0.559
same,glycan array binding signal (z-score),[19],0.722
same,glycan array binding signal (z-score),[20],-0.253
same,glycan array binding signal (z-score),[21],-1.27
same,glycan array binding signal (z-score),[22],-0.331
same,glycan array binding signal (z-score),[23],0.74
same,glycan array binding signal (z-score),[24],1.28
same,glycan array binding signal (z-score),[25],0.053
same,glycan array binding signal (z-score),[26],0.823
same,glycan array binding signal (z-score),[27],0.157
same,glycan array binding signal (z-score),[28],-0.679
same,glycan array binding signal (z-score),[29],0.675
same,glycan array binding signal (z-score),[30],-0.528
same,glycan array binding signal (z-score),[31],-0.821
same,glycan array binding signal (z-score),[32],-1.04
same,glycan array binding signal (z-score),[33],0.781
same,glycan array binding signal (z-score),[34],-0.318
same,glycan array binding signal (z-score),[35],0.065
same,glycan array binding signal (z-score),[36],0.077
same,glycan array binding signal (z-score),[37],-0.594
same,glycan array binding signal (z-score),[38],-0.851
same,glycan array binding signal (z-score),[39],0.03
same,glycan array binding signal (z-score),[40],-0.2
same,glycan array binding signal (z-score),[41],-1.12
same,glycan array binding signal (z-score),[42],-0.017
same,glycan array binding signal (z-score),[43],-0.552
same,glycan array binding signal (z-score),[44],0.566
same,glycan array binding signal (z-score),[45],-0.191

# 2 entries from above, as tab-separated lines:
binder	measurement	setting	value
B1	glycan array binding signal (z-score)	[16]	0.859
same	glycan array binding signal (z-score)	[26]	0.823
